System: GL261 murine brain tumor cells
Test: GL261 growth curve, cell size and colony forming efficiency
Format: cell-based
Description: 1 x 10^5 cells per 25 cm^2 flask at time zero (density 40 cells/mm^2). Three flasks were utilized at each time period. The medium in the flasks was not changed over the duration of the growth curve (unfed cultures). Data were taken daily from day zero to day 11.5 post-seeding and cell numbers, age distributions, and apoptotic percentages were determined. After growth curve shapes (without and with 2 µM Tetrac) were determined, irradiation times at 70 and 270 hour post-seeding were chosen.
To obtain exponential and plateau phase cell numbers, we trypsinized ([…] trypsin-EDTA) cells for 5 min at 37°C.
For determination of CCDTs, the cell numbers per flask were determined on a daily basis. A four-day interval in the exponential region of growth to obtain the CCDTs, yielding a total of 12 estimations for analysis was utilized. A regression analysis was performed using the (log) of the cell number versus the linear time in days (SigmaPlot, V. 10, Systat Software, Inc., Point Richmond, CA). The log slope value and its standard error (SE) were determined, and the SE was converted to the 95% confidence limits using a two-tailed t-table at N-1 degrees of freedom where N is the number of samples. (See Goldstein, A. In: Biostatistics, New York, The MacMillan Co., 1964, p. 140-146).

## O=C(O)Cc1cc(I)c(Oc2cc(I)c(O)c(I)c2)c(I)c1 [Tetrac, 3,3',5,5'-tetraiodothyroacetic acid]
Exponential Cells (+Tetrac)
  Mean nuclear/cell area (%): 42%
  Median Volume (µm^3): 3850 µm^3
  Median cell area (µm^2): 2814 µm^2
  Median nuclear area (µm^2): 1180 µm^2
Plateau phase Cells (+Tetrac)
  Mean nuclear/cell area (%): 44%
  Median Volume (µm^3): 2780 µm^3
  Median cell area (µm^2): 700 µm^2
  Median nuclear area (µm^2): 310 µm^2
Tetrac-treated exponential cells
  cell size relative to control GL261 cells: 1.4 times
Tetrac-treated plateau phase cells
  cell size relative to control GL261 cells: 1.9 times
